Assay [1] concerns the target recombinant human interferon beta-1a (human) (UniProt P01574). In words: SPR; IFN-β immobilised by amine coupling; Ca^2+-depleted S100 as analyte (1 µM); 25 °C; 10 mM HEPES, 150 mM NaCl, 0.01% TWEEN 20, pH 7.4, 1 mM EDTA; both purified. In general terms: Surface plasmon resonance follows binding to a sensor surface in real time, without labels.
For assay [2] the target is unchanged. Briefly: SPR; IFN-β immobilised on ProteOn GLH chip by amine coupling; Ca^2+-loaded S100 as analyte (0.25–5 µM S100A1, 0.5–5 µM S100A4/A6, 5 µM other S100); 25 °C; 10 mM HEPES, 150 mM NaCl, 0.01% TWEEN 20, pH 7.4, 1 mM CaCl2; heterogeneous ligand model; both purified.
For assay [3], the target named is recombinant human interferon beta-1a (human), P01574. The assay is described as above. Conditions: remark: other sources report otherwise.
The target is the same in assay [4]. Briefly: SPR; IFN-β immobilised by amine coupling; Ca^2+-depleted S100 as analyte (1 µM); 25 °C; 10 mM HEPES, 150 mM NaCl, 0.01% TWEEN 20, pH 7.4, 1 mM EDTA; both purified. Conditions: remark: other sources report otherwise.

These are yes or no findings as the source states them, for the method shown.

B1: recombinant human S100A11 (protein, UniProt P31949 1-105)
chain: MAKISSPTETERCIESLIAVFQKYAGKDGYNYTLSKTEFLSFMNTELAAFTKNQKDPGVLDRMMKKLDTNSDGQLDFSEFLNLIGGLAMACHDSFLKAVPSQKRT
B1: the figures for the binding entry in assay [1] and in assay [2] were “no binding (tested: 1 µM (1 mM EDTA))” and “no binding (tested: 5 µM; Kd not below 10 µM)”, respectively.

B2: recombinant human S100A15 (S100A7A) (protein, UniProt Q86SG5 1-101)
chain: MSNTQAERSIIGMIDMFHKYTGRDGKIEKPSLLTMMKENFPNFLSACDKKGIHYLATVFEKKDKNEDKKIDFSEFLSLLGDIAADYHKQSHGAAPCSGGSQ
On to B2, for which the binding result in assay [1] is on record as “no binding (tested: 1 µM (1 mM EDTA))”; in assay [2], “no binding (tested: 5 µM; Kd not below 10 µM)”.

B3: recombinant human S100A7 (protein, UniProt P31151 1-101)
chain: MSNTQAERSIIGMIDMFHKYTRRDDKIEKPSLLTMMKENFPNFLSACDKKGTNYLADVFEKKDKNEDKKIDFSEFLSLLGDIATDYHKQSHGAAPCSGGSQ
On to B3, for which the binding result was “no binding (tested: 1 µM (1 mM EDTA))” in assay [1] and “no binding (tested: 5 µM; Kd not below 10 µM)” in assay [2].

B4: recombinant human S100A13 (protein, UniProt Q99584 1-98)
chain: MAAEPLTELEESIETVVTTFFTFARQEGRKDSLSVNEFKELVTQQLPHLLKDVGSLDEKMKSLDVNQDSELKFNEYWRLIGELAKEIRKKKDLKIRKK
Regarding B4, the binding entry is “no binding (tested: 1 µM (1 mM EDTA))” in assay [1] and “no binding (tested: 5 µM; Kd not below 10 µM)” in assay [2].

B5: recombinant human S100A9 (protein, UniProt P06702 1-114)
chain: MTCKMSQLERNIETIINTFHQYSVKLGHPDTLNQGEFKELVRKDLQNFLKKENKNEKVIEHIMEDLDTNADKQLSFEEFIMLMARLTWASHEKMHEGDEGPGHHHKPGLGEGTP
Take B5: the binding entry is on record as “no binding (tested: 1 µM (1 mM EDTA))” in assay [1] and “no binding (tested: 5 µM; Kd not below 10 µM)” in assay [2].

B6: recombinant human S100B, P04271 1-92 (natural protein)
chain: MSELEKAMVALIDVFHQYSGREGDKHKLKKSELKELINNELSHFLEEIKEQEVVDKVMETLDNDGDGECDFQEFMAFVAMVTTACHEFFEHE
B6: the binding result is reported as “no binding (tested: 5 µM; Kd not below 10 µM)” in assay [3] and “no binding (tested: 1 µM (1 mM EDTA))” in assay [4].

B7: recombinant human S100A8 (protein, UniProt P05109 1-93)
chain: MLTELEKALNSIIDVYHKYSLIKGNFHAVYRDDLKKLLETECPQYIRKKGADVWFKELDINTDGAVNFQEFLILVIKMGVAAHKKSHEESHKE
Take B7: the binding entry in assay [1] was “no binding (tested: 1 µM (1 mM EDTA))”; in assay [2], “no binding (tested: 5 µM; Kd not below 10 µM)”.

B8: recombinant human S100A14 (protein, UniProt Q9HCY8 1-104)
chain: MGQCRSANAEDAQEFSDVERAIETLIKNFHQYSVEGGKETLTPSELRDLVTQQLPHLMPSNCGLEEKIANLGSCNDSKLEFRSFWELIGEAAKSVKLERPVRGH
B8: the values for the binding entry in assay [1] and in assay [2] were “no binding (tested: 1 µM (1 mM EDTA))” and “no binding (tested: 5 µM; Kd not below 10 µM)”, respectively.

B9: recombinant human S100A12 (protein, UniProt P80511 1-92)
chain: MTKLEEHLEGIVNIFHQYSVRKGHFDTLSKGELKQLLTKELANTIKNIKDKAVIDEIFQGLDANQDEQVDFQEFISLVAIALKAAHYHTHKE
In the case of B9, the values for the binding result in assay [1] and in assay [2] were “no binding (tested: 1 µM (1 mM EDTA))” and “no binding (tested: 5 µM; Kd not below 10 µM)”, respectively.

The values are drawn from paper PMC7764042.
